PubChem BioAssay AID504791, Drosophila RNAi Screening Center – 2011

Assay: 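Genes of the fly required for silencing by miRNA, siRNA or endo-siRNA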 (primary screen)
Cells: Drosophila S2-derived reporter cells
Reagent: long dsRNA against Drosophila genes, about 150-250 ng dsRNA per well (siRNA assay); about 80-120 ng (miRNA assay)
Timing: about 5 days (siRNA assay); about 4 days (miRNA assay)
Conditions: copper sulfate induction of reporters: 25 µM (siRNA assay); 200 mM stated (miRNA assay), 1-2 days before reading
Measurement: 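Per-well ratio of Renilla over firefly light, expressed relative to that plate's average ratio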
Call rule: 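First-pass picks had plate-scaled ratios over 1.5 for the siRNA assay, over 1.6 for the miRNA assay, or under 0.6; two distinct dsRNAs had to score alike on retest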
In all, the deposit lists about 23,000 reagents; shown is a random part of those that have a named target and a result. Of all reagents, 199 (0.86%) got an active call. 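Plate-scaled ratios behind the calls are not deposited; printed light signals are raw; many rows marked increased or decreased are still called inactive.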 Names joined by + are all predicted targets of the reagent. Not stated in the record: the direction of the score.

gene	dsRNA	stable siRNA reporter change	miRNA reporter change	stable assay Renilla, run 1 (luminescence)	stable assay firefly, run 1 (luminescence)	Outcome
CG5455 (GeneID 43196)	DRSC15805			8257	5.30e5	inactive
knon (GeneID 36845)	DRSC07049			6682	3.62e5	inactive
CG13723 (GeneID 39925)	DRSC10052			7339	4.26e5	inactive
Cyp9f2 (GeneID 41520)	DRSC16635			8094	4.35e5	inactive
CG1233 (GeneID 38063)	DRSC08269			9145	3.79e5	inactive
SF1 (GeneID 43912)	DRSC16844			5879	5.23e5	inactive
CG3347 (GeneID 33538)	DRSC00597			8407	5.05e5	inactive
STUB1 (GeneID 34433)	DRSC03282			7802	5.58e5	inactive
Pak (GeneID 44039)	DRSC12602			7826	3.22e5	inactive
Pak (GeneID 44039)	DRSC23302			4236	3.80e5	inactive
mtDNA-helicase (GeneID 34307)	DRSC02912			7542	3.88e5	inactive
salt (GeneID 43742)	DRSC15427	reporter ratio raised past the hit cutoff		17231	5.66e5	inactive
ems (GeneID 41697)	DRSC16941			7406	3.67e5	inactive
Tsf1 (GeneID 32821)	DRSC20296			5247	4.29e5	inactive
CG6481 (GeneID 32843)	DRSC19995			6247	5.30e5	inactive
Dip-C (GeneID 47769)	DRSC15855			7302	3.80e5	inactive
Sp1 (GeneID 31913)	DRSC17622			5722	4.27e5	inactive
Sp1 (GeneID 31913)	DRSC18717			5355	3.85e5	inactive
heix (GeneID 34961)	DRSC03542			9763	1.44e6	inactive
Crag (GeneID 31800)	DRSC18454			8610	4.62e5	inactive
CG5849 (GeneID 42556)	DRSC15893			8044	3.72e5	inactive
r (GeneID 32640)	DRSC19813			3008	3.18e5	inactive
r (GeneID 32640)	DRSC19814			3459	3.44e5	inactive
robo2 (GeneID 44522)	DRSC00377			6551	3.23e5	inactive
robo2 (GeneID 44522)	DRSC00378			7566	4.04e5	inactive
robo2 (GeneID 44522)	DRSC00686			8006	4.32e5	inactive
robo2 (GeneID 44522)	DRSC00691			52646	1.07e5	inactive
ACXB (GeneID 53427)	DRSC00845			6958	3.08e5	inactive
Rbf (GeneID 31027)	DRSC18704			10620	5.88e5	inactive
Sgf29 (GeneID 37429)	DRSC04076			1.70e5	6.09e5	inactive
CG15385 (GeneID 33396)	DRSC00399			7406	3.53e5	inactive
CG8128 (GeneID 32504)	DRSC20084			8605	6.76e5	inactive
Larp4B (GeneID 38399)	DRSC08192			4136	1.74e5	inactive
Larp4B (GeneID 38399)	DRSC23201			2239	2.10e5	inactive
kri (GeneID 38655)	DRSC10515			6883	4.60e5	inactive
Arf1 (GeneID 40506)	DRSC11606			7303	3.68e5	inactive
Kap3 (GeneID 32071)	DRSC19426			7086	4.29e5	inactive
Wnt2 (GeneID 35975)	DRSC05160			6092	5.11e5	inactive
Wnt2 (GeneID 35975)	DRSC07574			6051	3.28e5	inactive
oxt (GeneID 38288)	DRSC08522			10456	3.74e5	inactive
RecQ4 (GeneID 53438)	DRSC11265			6218	3.81e5	inactive
CG12011 (GeneID 38211)	DRSC08219			5631	3.43e5	inactive
CG6048 (GeneID 31528)	DRSC18398			5955	3.01e5	inactive
CG3687 (GeneID 36803)	DRSC06850			6606	3.15e5	inactive
CG5262 (GeneID 40258)	DRSC11773			8389	3.18e5	inactive
CG4676 (GeneID 36465)	DRSC06879			5238	3.44e5	inactive
wry (GeneID 33361)	DRSC00352			7318	5.48e5	inactive
wry (GeneID 33361)	DRSC00456			7462	5.49e5	inactive
wry (GeneID 33361)	DRSC22414			4739	4.71e5	inactive
Rab18 (GeneID 44360)	DRSC18702			8705	5.83e5	inactive
CG13010 (GeneID 32643)	DRSC19529			4547	3.70e5	inactive
Atg4b (GeneID 41868)	DRSC15988	reporter ratio lowered past the hit cutoff		9593	8.45e5	inactive
Fmo-1 (GeneID 37814)	DRSC04328			8231	1.46e6	inactive
Muc30E (GeneID 2768931)	DRSC01101			4859	3.82e5	inactive
Grip128 (GeneID 32478)	DRSC20167			9258	4.09e5	inactive
CG6674 (GeneID 39174)	DRSC10692			12101	5.34e5	inactive
CG2124 (GeneID 31989)	DRSC18208			5168	4.18e5	inactive
RasGAP1 (GeneID 39158)	DRSC11172			6410	3.40e5	inactive
Rm62 (GeneID 40739)	DRSC12365			7106	5.17e5	inactive
CG11975 (GeneID 41074)	DRSC14452			9045	3.52e5	inactive
HP1e (GeneID 41108)	DRSC16379			8290	5.15e5	inactive
jing (GeneID 35555)	DRSC04923			6195	3.71e5	inactive
jing (GeneID 35555)	DRSC04927	reporter ratio raised past the hit cutoff		6496	1.11e5	inactive
jing (GeneID 35555)	DRSC05000			12419	1.40e6	inactive
Vlet (GeneID 32116)	DRSC19845			8994	4.87e5	inactive
prage (GeneID 31136)	DRSC17957			6227	2.69e5	inactive
prage (GeneID 31136)	DRSC17958			6583	2.70e5	inactive
prage (GeneID 31136)	DRSC18490			7114	3.48e5	inactive
prage (GeneID 31136)	DRSC18497			6536	4.10e5	inactive
CG30471 (GeneID 246633)	DRSC07096			9359	4.42e5	inactive
DCTN1-p150 (GeneID 39536)	DRSC11175			10071	4.25e5	inactive
sphinx1 (GeneID 318005)	DRSC10993			6846	4.99e5	inactive
bap (GeneID 42537)	DRSC16908			6175	5.38e5	inactive
CG34260 + cmpy	DRSC11701			8920	4.41e5	inactive
CG5194 (GeneID 39037)	DRSC10492			8604	3.84e5	inactive
NimC2 (GeneID 34818)	DRSC01881			7759	3.22e5	inactive
His-Psi:CR31616 + His-Psi:CR31615	DRSC03760		reporter ratio raised past the hit cutoff	5530	4.66e5	inactive
CG4751 (GeneID 34551)	DRSC02776			7962	6.18e5	inactive
Myt1 (GeneID 38649)	DRSC11228			4868	3.50e5	inactive
gsb (GeneID 38005)	DRSC04692			6511	4.54e5	inactive
CG15249 (GeneID 31924)	DRSC17978			4627	3.16e5	inactive
Dop1R1 (GeneID 41726)	DRSC13021			4031	3.79e5	inactive
Dop1R1 (GeneID 41726)	DRSC16652			4820	3.46e5	inactive

Taken from above:
Entry for SF1 (GeneID 43912) [DRSC16844] in “Outcome”: inactive
Grip128 (GeneID 32478) [DRSC20167], stable assay Renilla, run 1 (luminescence): 9258
For “Outcome”, bap (GeneID 42537) [DRSC16908] is entered as inactive
For “stable assay firefly, run 1 (luminescence)”, CG6674 (GeneID 39174) [DRSC10692] has 5.34e5
Sp1 (GeneID 31913) [DRSC18717], Outcome: inactive
For “Outcome”, CG2124 (GeneID 31989) [DRSC18208] is entered as inactive
